Data taken from PMC12204374.
Results are given in words; binding and its absence hold for the method and conditions named. Some binding calls cover weakened binding; strength is not graded here.

T1: McdA (Maintenance of Carboxysome Distribution protein A) of Halothiobacillus neapolitanus (H. neapolitanus) (UniProt D0KZ82)
T1 sequence: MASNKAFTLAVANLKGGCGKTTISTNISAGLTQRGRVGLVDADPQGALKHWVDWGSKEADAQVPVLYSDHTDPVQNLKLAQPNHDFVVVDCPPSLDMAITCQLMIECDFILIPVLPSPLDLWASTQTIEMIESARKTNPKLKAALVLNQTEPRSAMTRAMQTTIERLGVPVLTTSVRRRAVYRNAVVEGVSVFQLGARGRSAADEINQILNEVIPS

B1: McdB (Maintenance of Carboxysome Distribution protein B) of Halothiobacillus neapolitanus, wildtype (protein, UniProt D0KZ81 1-96)
chain: MTNLEDKLSASIKTENKDTIAPASTPAKPAARSAAPETTKPASTGAKPATRTAAKKPVARATTTKPAVSKSSKPSADDIQVPAHDTSTHPRRVWPD
B2: McdB[K13A] (protein, UniProt D0KZ81 1-96)
chain: MTNLEDKLSASIATENKDTIAPASTPAKPAARSAAPETTKPASTGAKPATRTAAKKPVARATTTKPAVSKSSKPSADDIQVPAHDTSTHPRRVWPD
B3: McdB[K17A] (protein, UniProt D0KZ81 1-96)
chain: MTNLEDKLSASIKTENADTIAPASTPAKPAARSAAPETTKPASTGAKPATRTAAKKPVARATTTKPAVSKSSKPSADDIQVPAHDTSTHPRRVWPD

Target: T1, McdA (Maintenance of Carboxysome Distribution protein A) of Halothiobacillus neapolitanus (H. neapolitanus)
Experiment: two-hybrid; bacterial two-hybrid (B2H) in E. coli BTH101; N-terminal T18 and T25 fusions (pUT18C, pKT25) in both pairwise combinations; LB X-gal plates with 0.5 mM IPTG at 30 °C and β-galactosidase activity in Miller Units

Binder	binding
B1	binds
MTNLEDKLSASIKTENKDTI (peptide, UniProt D0KZ81 1-20) [20-amino acid N-terminal peptide of McdB]	binds
B2	binds
B3	binds
